These are yes or no findings as the source states them, for the method shown. Binding seen in cells or lysates may run through a third protein. Binding calls can cover weak binding; strength is not graded here.

For assay [1], the target named is T1, Caveolin-1 (Cav1), endogenous in rat intestinal epithelial cells (rat (endogenous in IEC-6)) (UniProt P41350).
T1 sequence: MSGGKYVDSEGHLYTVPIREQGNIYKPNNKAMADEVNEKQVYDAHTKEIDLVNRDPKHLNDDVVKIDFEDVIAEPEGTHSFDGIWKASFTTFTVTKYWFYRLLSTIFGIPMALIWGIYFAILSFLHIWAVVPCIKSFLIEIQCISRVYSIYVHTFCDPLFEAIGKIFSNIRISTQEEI
Briefly: co-IP; whole-cell lysates in RIPA buffer (500 ug) of IEC-6, IEC-Cdx2L1, IEC-TRPC1 (also after siCav1 or C-siRNA), IEC-Cav1 and Null cells; IP with anti-Cav1 or anti-TRPC1 antibody (4 ug), protein A/G-PLUS-Agarose, 4 C; western blot for TRPC1 or Cav1.

The target of assay [2] is TRPC1 stably overexpressed in IEC-6 cells (IEC-TRPC1). The description is as above.

As for “TRPC1 stably overexpressed in IEC-6 cells (IEC-TRPC1)”, the binding result in assay [1] is “binds”.

B1: Caveolin-1 (Cav1), endogenous in rat intestinal epithelial cells (protein, UniProt P41350 1-178)
chain: T1 sequence
As for B1, the binding result in assay [2] is “binds”.

(Values after paper PMC4255804.)
